The values that follow come from patent publication US11219602B2, “Method for making a micronized dry powder formulation of glycopyrrolate and magnesium stearate” (VECTURA LIMITED, priority 2017, dated 2022).

A short description of this series: Dynamic Vapour Sorption (amorphous content). The class given is physicochemical. Particulars: t=0, immediately after micronisation, 25° C., 0-90% RH. As to the method:
The amorphous content for micronized glycopyrrolate was assessed by DVS using an SMS DVS Advantage instrument which was set to a temperature of 25° C. The humidity was increased from 0-90% RH then returned to 0% RH in steps of 10% RH, changes between steps which were triggered by a mass change of 0.0001 (% dm/dt).

Each structure is given as a SMILES string.

In the case of `C[N+]1(C)CCC(OC(=O)C(O)(c2ccccc2)C2CCCC2)C1` (stereo not shown) [jet milled glycopyrrolate, glycopyrrolate], the “Amorphous material by Dynamic Vapour Sorption” value is given as “substantial amounts of amorphous material”.
